Experimental data published in paper PMC9769614.
No constants are given. Whether binding was seen depends on the method and setting. Binding seen in cells or lysates may run through a third protein. A result given as binding can be weak or reduced; the word gives no strength. Tags and fused reporters may be left off the sequences shown.

Assays:
[1] = molecular target: T1, Myc-tagged duck RIG-I (Myc-duRIG-I) (duck) (UniProt D3TI84); test: co-IP; HEK-293T cells cotransfected with Myc-duRIG-I and HA-duTRIM25, along with Flag-duTRIM35 or an empty vector; lysate immunoprecipitated with anti-Myc antibodies; immunoblot
T1 sequence: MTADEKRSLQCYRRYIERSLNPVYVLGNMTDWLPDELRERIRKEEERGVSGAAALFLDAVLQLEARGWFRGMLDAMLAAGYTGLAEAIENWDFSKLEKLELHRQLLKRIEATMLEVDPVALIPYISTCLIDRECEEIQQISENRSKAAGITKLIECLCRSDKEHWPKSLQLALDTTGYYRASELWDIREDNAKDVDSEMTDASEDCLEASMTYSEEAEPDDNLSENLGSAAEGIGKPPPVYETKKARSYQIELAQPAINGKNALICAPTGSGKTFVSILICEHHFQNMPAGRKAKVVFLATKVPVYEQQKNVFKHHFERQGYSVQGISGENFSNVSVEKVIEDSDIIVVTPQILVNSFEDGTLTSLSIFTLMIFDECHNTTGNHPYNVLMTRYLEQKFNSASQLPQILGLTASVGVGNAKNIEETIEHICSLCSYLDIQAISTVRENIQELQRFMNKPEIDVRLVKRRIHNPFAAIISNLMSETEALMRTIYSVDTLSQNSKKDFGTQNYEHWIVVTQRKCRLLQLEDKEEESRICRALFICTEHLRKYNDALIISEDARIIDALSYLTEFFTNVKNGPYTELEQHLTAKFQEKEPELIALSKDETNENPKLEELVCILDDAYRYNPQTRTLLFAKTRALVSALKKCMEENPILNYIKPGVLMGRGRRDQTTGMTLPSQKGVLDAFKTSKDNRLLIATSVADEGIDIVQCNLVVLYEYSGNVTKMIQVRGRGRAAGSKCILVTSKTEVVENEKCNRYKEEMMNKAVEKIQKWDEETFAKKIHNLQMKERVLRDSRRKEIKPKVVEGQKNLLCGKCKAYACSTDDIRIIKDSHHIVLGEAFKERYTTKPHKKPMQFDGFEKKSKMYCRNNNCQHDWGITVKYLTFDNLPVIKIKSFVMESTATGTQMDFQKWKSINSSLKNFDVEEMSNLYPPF

[2] = molecular target: T2, Flag-tagged duck RIG-I (Flag-duRIG-I) (duck) (UniProt D3TI84); test: co-IP; HEK-293T cells cotransfected; lysate in Co-IP buffer (Beyotime) with protease inhibitors; immunoprecipitated with anti-Flag antibody overnight at 4°C, protein A/G plus agarose, 4 washes; immunoblot
T2 sequence: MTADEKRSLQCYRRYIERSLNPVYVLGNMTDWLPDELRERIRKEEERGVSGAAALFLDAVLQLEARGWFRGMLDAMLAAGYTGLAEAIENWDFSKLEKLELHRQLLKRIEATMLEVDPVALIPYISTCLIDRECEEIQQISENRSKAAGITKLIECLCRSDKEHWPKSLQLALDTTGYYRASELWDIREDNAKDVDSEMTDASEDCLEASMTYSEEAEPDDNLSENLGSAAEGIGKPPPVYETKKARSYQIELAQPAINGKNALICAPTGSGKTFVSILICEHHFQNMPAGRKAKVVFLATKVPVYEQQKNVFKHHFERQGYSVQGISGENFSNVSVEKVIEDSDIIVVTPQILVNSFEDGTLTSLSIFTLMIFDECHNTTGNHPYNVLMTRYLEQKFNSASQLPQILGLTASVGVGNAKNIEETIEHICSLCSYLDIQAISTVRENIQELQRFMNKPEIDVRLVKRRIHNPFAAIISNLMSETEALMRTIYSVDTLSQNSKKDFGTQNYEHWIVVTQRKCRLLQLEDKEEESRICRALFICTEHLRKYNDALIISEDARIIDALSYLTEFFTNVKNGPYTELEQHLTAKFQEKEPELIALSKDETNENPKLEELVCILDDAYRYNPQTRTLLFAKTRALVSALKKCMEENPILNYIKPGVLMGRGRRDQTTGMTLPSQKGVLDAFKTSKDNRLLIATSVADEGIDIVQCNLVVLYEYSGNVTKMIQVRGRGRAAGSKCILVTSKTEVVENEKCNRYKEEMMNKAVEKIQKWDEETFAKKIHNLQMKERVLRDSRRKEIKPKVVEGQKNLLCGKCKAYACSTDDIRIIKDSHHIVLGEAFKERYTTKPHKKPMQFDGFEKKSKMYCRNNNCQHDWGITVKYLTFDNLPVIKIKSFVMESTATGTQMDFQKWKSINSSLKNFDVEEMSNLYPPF

[3] = molecular target: Flag-tagged duck TRIM25 (Flag-duTRIM25) (duck); test: as above
[4] = molecular target: Flag-tagged duck TRIM35 (Flag-duTRIM35) (duck); test: as above

HA-tagged duck TRIM25 (HA-duTRIM25)
binding [1]: binds

HA-tagged duck TRIM35 (HA-duTRIM35)
binding [2]: binds

B1: HA-tagged duck RIG-I (HA-duRIG-I) (protein, UniProt D3TI84 1-933)
chain: MTADEKRSLQCYRRYIERSLNPVYVLGNMTDWLPDELRERIRKEEERGVSGAAALFLDAVLQLEARGWFRGMLDAMLAAGYTGLAEAIENWDFSKLEKLELHRQLLKRIEATMLEVDPVALIPYISTCLIDRECEEIQQISENRSKAAGITKLIECLCRSDKEHWPKSLQLALDTTGYYRASELWDIREDNAKDVDSEMTDASEDCLEASMTYSEEAEPDDNLSENLGSAAEGIGKPPPVYETKKARSYQIELAQPAINGKNALICAPTGSGKTFVSILICEHHFQNMPAGRKAKVVFLATKVPVYEQQKNVFKHHFERQGYSVQGISGENFSNVSVEKVIEDSDIIVVTPQILVNSFEDGTLTSLSIFTLMIFDECHNTTGNHPYNVLMTRYLEQKFNSASQLPQILGLTASVGVGNAKNIEETIEHICSLCSYLDIQAISTVRENIQELQRFMNKPEIDVRLVKRRIHNPFAAIISNLMSETEALMRTIYSVDTLSQNSKKDFGTQNYEHWIVVTQRKCRLLQLEDKEEESRICRALFICTEHLRKYNDALIISEDARIIDALSYLTEFFTNVKNGPYTELEQHLTAKFQEKEPELIALSKDETNENPKLEELVCILDDAYRYNPQTRTLLFAKTRALVSALKKCMEENPILNYIKPGVLMGRGRRDQTTGMTLPSQKGVLDAFKTSKDNRLLIATSVADEGIDIVQCNLVVLYEYSGNVTKMIQVRGRGRAAGSKCILVTSKTEVVENEKCNRYKEEMMNKAVEKIQKWDEETFAKKIHNLQMKERVLRDSRRKEIKPKVVEGQKNLLCGKCKAYACSTDDIRIIKDSHHIVLGEAFKERYTTKPHKKPMQFDGFEKKSKMYCRNNNCQHDWGITVKYLTFDNLPVIKIKSFVMESTATGTQMDFQKWKSINSSLKNFDVEEMSNLYPPF
binding [3]: binds | binding [4]: binds
